The text below walks through data of patent publication US11041000B2 (priority 2019, dated 2021).

A short description of the data set: general procedure: Fmoc solid-phase peptide synthesis; Rink Amide MBHA resin (100-200 mesh, 0.57 or 0.66 mmol/g) for C-terminal amides; pre-loaded Wang resin for C-terminal ac; HBTU/DIEA (PyAOP/DIEA for some couplings); Oxyma/DIC. The settings on record: whole synthesis, Analytical RP-HPLC (Gemini C18).

Turning to “Ac-[Pen]-NT-[W(7-Me)]-[Lys(Ac)]-[Pen]-Phe[4-(2-aminoethoxy)]-[2-Nal]-[a-MeLys]-[Lys(Ac)]-N-[(D)Leu]-NH2”, the “final HPLC purity” value (acetate) turned out to be 97%. As for “Ac-[Pen]-NT-[W(7-Me)]-[Lys(Ac)]-[Pen]-Phe[4-(2-aminoethoxy)]-[2-Nal]-[a-MeLys]-[Lys(Ac)]-N-[(D)Lys]-NH2”, the “final HPLC purity” value (acetate salt) amounted to 97%. Take “Ac-[Pen]-NT-[W(7-Me)]-[Lys(Ac)]-[Pen]-Phe[4-(2-aminoethoxy)]-[2-Nal]-[a-MeLys]-[Lys(Ac)]-N—H—NH2”: the “final HPLC purity” value (acetate) was greater than 97%. As to “Ac-[Per]-NT-[W(7-Me)]-[Cit]-[Per]-Phe[4-(2-aminoethoxy)]-[2-Nal]-[a-MeLys]-[Lys(Ac)]-[N-MeAla]-NH2”, the “final HPLC purity” value (acetate) was greater than 97%.
